Measurements as given in publication doi:10.1101/2021.05.17.443835.
Results are given in words; binding and its absence hold for the method and conditions named. In cells and extracts the contact can be indirect. A yes stands for co-enrichment or nearness to the bait. Other partners may have been found.

By UniProt entry, the sequences of proteins in these tests, tags left out.
UniProt P26039, whole entry: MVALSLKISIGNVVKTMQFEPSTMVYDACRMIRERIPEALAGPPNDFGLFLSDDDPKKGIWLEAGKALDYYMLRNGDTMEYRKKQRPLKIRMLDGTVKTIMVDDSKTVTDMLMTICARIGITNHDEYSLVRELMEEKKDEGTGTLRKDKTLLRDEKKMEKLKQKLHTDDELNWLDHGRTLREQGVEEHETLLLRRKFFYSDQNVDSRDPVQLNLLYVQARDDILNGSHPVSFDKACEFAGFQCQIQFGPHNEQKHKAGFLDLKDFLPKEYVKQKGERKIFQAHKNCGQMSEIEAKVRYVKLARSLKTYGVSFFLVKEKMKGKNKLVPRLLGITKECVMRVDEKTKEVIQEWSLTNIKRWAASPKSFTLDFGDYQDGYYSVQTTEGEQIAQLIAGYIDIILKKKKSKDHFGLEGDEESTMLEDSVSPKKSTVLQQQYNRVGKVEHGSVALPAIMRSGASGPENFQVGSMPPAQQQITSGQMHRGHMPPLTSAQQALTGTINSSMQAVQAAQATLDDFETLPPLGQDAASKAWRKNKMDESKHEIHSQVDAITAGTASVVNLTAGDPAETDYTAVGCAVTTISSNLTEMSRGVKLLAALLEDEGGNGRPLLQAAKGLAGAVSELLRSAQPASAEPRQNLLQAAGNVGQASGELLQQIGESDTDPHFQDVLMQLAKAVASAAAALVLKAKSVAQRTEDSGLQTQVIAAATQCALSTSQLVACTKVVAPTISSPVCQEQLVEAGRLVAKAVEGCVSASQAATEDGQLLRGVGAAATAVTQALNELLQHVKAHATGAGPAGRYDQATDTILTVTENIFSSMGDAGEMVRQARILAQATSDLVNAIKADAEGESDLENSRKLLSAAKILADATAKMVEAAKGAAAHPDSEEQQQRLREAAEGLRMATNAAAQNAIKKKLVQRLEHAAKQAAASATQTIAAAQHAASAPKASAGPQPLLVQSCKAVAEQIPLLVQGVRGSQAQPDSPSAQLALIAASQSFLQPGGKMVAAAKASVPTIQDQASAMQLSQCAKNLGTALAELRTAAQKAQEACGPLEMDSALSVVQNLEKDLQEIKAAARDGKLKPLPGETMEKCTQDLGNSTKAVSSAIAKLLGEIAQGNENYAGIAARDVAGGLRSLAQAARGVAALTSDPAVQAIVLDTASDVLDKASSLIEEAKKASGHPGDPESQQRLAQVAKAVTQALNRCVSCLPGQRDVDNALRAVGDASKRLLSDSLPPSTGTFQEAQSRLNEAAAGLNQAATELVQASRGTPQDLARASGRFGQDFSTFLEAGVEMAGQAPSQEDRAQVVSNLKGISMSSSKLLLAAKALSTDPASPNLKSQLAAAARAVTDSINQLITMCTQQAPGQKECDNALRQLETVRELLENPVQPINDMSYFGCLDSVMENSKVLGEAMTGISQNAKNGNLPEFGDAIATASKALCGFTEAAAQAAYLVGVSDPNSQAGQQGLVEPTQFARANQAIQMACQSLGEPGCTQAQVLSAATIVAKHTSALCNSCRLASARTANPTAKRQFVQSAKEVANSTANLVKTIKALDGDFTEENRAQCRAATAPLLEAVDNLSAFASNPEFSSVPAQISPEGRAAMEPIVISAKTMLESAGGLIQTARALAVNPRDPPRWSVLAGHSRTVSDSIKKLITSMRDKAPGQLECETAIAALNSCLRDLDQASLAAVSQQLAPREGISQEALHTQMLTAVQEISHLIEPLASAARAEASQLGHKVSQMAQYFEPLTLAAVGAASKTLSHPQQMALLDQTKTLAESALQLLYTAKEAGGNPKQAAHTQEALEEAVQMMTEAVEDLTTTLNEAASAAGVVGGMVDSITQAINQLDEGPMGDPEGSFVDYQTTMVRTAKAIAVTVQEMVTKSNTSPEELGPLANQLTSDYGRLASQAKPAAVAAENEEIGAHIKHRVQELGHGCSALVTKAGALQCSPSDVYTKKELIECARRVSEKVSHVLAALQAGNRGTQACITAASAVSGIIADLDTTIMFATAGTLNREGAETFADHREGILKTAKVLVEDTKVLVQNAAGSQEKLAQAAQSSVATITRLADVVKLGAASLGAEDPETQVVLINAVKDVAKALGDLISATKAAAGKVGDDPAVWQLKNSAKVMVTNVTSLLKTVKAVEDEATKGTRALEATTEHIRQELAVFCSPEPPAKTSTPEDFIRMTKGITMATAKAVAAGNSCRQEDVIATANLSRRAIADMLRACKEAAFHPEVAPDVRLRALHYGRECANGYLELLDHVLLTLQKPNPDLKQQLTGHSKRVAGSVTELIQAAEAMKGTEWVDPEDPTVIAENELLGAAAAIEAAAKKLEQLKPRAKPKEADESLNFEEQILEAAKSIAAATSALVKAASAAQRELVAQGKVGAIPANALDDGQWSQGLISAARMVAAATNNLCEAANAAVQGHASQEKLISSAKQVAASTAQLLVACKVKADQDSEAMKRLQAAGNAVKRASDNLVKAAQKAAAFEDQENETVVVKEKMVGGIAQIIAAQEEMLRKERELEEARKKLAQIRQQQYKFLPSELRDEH

Biological target: Talin-13X-Linker-BioID2-HA (UniProt P26039)
Test: proximity labelling

binding: binds
B1: Zyxin (protein, UniProt Q15942 1-572)
chain: MAAPRPSPAISVSVSAPAFYAPQKKFGPVVAPKPKVNPFRPGDSEPPPAPGAQRAQMGRVGEIPPPPPEDFPLPPPPLAGDGDDAEGALGGAFPPPPPPIEESFPPAPLEEEIFPSPPPPPEEEGGPEAPIPPPPQPREKVSSIDLEIDSLSSLLDDMTKNDPFKARVSSGYVPPPVATPFSSKSSTKPAAGGTAPLPPWKSPSSSQPLPQVPAPAQSQTQFHVQPQPQPKPQVQLHVQSQTQPVSLANTQPRGPPASSPAPAPKFSPVTPKFTPVASKFSPGAPGGSGSQPNQKLGHPEALSAGTGSPQPPSFTYAQQREKPRVQEKQHPVPPPAQNQNQVRSPGAPGPLTLKEVEELEQLTQQLMQDMEHPQRQNVAVNELCGRCHQPLARAQPAVRALGQLFHIACFTCHQCAQQLQGQQFYSLEGAPYCEGCYTDTLEKCNTCGEPITDRMLRATGKAYHPHCFTCVVCARPLEGTSFIVDQANRPHCVPDYHKQYAPRCSVCSEPIMPEPGRDETVRVVALDKNFHMKCYKCEDCGKPLSIEADDNGCFPLDGHVLCRKCHTARAQT
